Data taken from PubChem BioAssay AID1487 (National Center for Advancing Translational Sciences (NCATS), 2009).
“And” between values parts separate entries of the source, which are not always exact repeats. Equal entries are not always repeated. The list shows a part of the results. Shown are side measurements of this screen, not its main read-out; they come without a call. Most of these compounds were active or inconclusive in the main read-out, so they are no random draw. Potencies come from curve fits of mixed quality, noted in brackets.

Assay: qHTS Assay for Modulators of Lamin A Splicing
Conditions: HeLa LMNA splicing GFP/RFP minigene ratio, 48 h
Method in brief: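 S3 HeLa cells stably expressing lamin A-EGFP splicing minigene plus DsRed2, 600 cells/well, 48 h compound exposure at 37C. Laser-scanning cytometry; analysed as GFP (500-530 nm)/RFP (575-640 nm) total intensity ratio; 0.5% DMSO vehicle.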

[1] = measured here: RFP viability control channel
[2] = measured here: GFP splicing reporter channel

Row | Compound | AC50 [1] | AC50 [2]
1 | CCOC(=O)c1sc(NC(=O)/C=C/c2ccccc2)nc1C | 3.98 µM [rising, full curve, poor fit] | 
2 | CCN(CC)c1ccc(/C=N/Nc2nc3ccccc3[nH]2)cc1 | 6.31 µM [rising, partial curve] | 4.47 µM [rising, partial curve]
3 | Cc1nc2ccccc2c2oc(C(=O)NCC3CCCO3)cc12 (stereo not drawn) | 12.6 µM [rising, partial curve] | 
4 | COc1ccc(NC(=O)CN2C(=O)CCc3cc(S(=O)(=O)N4CCOCC4)ccc32)c(OC)c1 | 0.501 µM [rising, single point] | 
5 | Cc1c(/C=C/C(=O)c2ccc(Cl)s2)cnn1C | 31.6 µM [rising, single point] | 
6 | O=C1C(Cl)=C(NCCCO)C(=O)c2ccccc21 | 35.5 µM [rising, single point] | 
7 | c1ccc(NCc2nc3ccccc3n2CCOc2ccccc2)cc1 | 11.2 µM [rising, partial curve, poor fit] | 
8 | COc1ccc(N2CCN(C(=O)c3ccc4c(=O)n(CCc5ccc(OC)c(OC)c5)c(=O)[nH]c4c3)CC2)cc1 | 14.1 µM [falling, single point] and 31.6 µM [falling, partial curve, poor fit] | 11.2 µM [falling, single point] and 25.1 µM [falling, partial curve, poor fit]
9 | CCn1c(SCc2nc3ccccc3[nH]2)nnc1-c1ccccc1OC | 5.62 µM [rising, partial curve, poor fit] | 0.355 µM [rising, full curve, poor fit]
10 | Cc1ccc(N2CCN(C(=O)c3ccccc3Br)CC2)c(C)c1 | 20 µM [rising, partial curve, poor fit] | 
11 | Cc1noc(C)c1COC(=O)c1ccc(N(C)C)cc1 |  | 12.6 µM [falling, partial curve]
12 | NC(N)=Nc1nc(CSCC/C(N)=N/S(N)(=O)=O)cs1 | 282 nM [falling, partial curve, poor fit] and 28.2 nM [falling, full curve, poor fit] and 5.62 µM [falling, single point] | 355 nM [falling, partial curve, poor fit] and 5.62 nM [falling, full curve, poor fit] and 6.31 µM [falling, partial curve, poor fit]
13 | CS(=O)(=O)N(CCc1ccccc1)CC(=O)Nc1ccc(OCc2ccccc2)cc1 | 15.8 µM [falling, single point] | 15.8 µM [falling, single point]
14 | Cc1ccc2[nH]c(=O)c(CN(Cc3ccccc3)C(=S)NCCCN(C)C)cc2c1 | 10 µM [falling, partial curve] | 
15 | CCn1c(SCC(=O)Nc2ccc(C)cc2)nnc1-c1ccc(O)cc1 | 14.1 µM [rising, partial curve, poor fit] | 
16 | CCC(C)(C)n1nnnc1CN1CCC(NC(=O)c2ccc(Br)cc2)CC1 | 20 µM [rising, single point] | 
17 | CCc1ccccc1N1CCN(S(=O)(=O)c2cc(OC)ccc2OC)CC1 | 15.8 µM [rising, partial curve, poor fit] | 
18 | CCCN(CCC)C(=O)COc1cc(=O)n(CC)c2ccccc12 | 3.98 µM [rising, single point] | 
19 | CN(NC(=O)c1ccccc1F)c1nc(C(F)(F)F)nc2ccccc12 | 12.6 µM [rising, partial curve, poor fit] | 
20 | OCCN(Cc1nc(-c2ccc3c(c2)OCO3)no1)Cc1cccs1 | 22.4 µM [falling, partial curve, poor fit] | 
21 | CC(=O)N1CCc2c(sc3c2c(=O)n(-c2ccccc2Cl)c(=O)n3Cc2cccc(C)c2)C1 | 35.5 µM [rising, single point] | 35.5 µM [rising, single point]
22 | CC(NC(=O)CSC1=NCCS1)c1ccccc1 (stereo not drawn) | 35.5 µM [rising, single point] | 
23 | O=C(Nc1cccc(Cl)c1)Nc1cccc(Cl)c1 | 15.8 µM [rising, single point] | 
24 | C=C(C)COc1ccc(-c2[nH]ncc2Oc2ccccc2OCC)c(O)c1 | 35.5 µM [rising, single point] | 
25 | CCOC(=O)N1CCN(Cc2nc3cc(NC(=O)c4ccccc4Cl)ccc3n2C(C)C)CC1 | 0.708 µM [rising, partial curve] | 
26 | Cc1cc(-c2ccccc2)nnc1NCCN1CCOCC1 | 22.4 µM [falling, partial curve, poor fit] | 14.1 µM [falling, single point]

Row | Compound | AC50 [1] | AC50 [2]
27 | O=C(CN1CCC(n2nnc3cc(F)ccc32)CC1)NCCc1nc2ccccc2[nH]1 | 20 µM [rising, single point] | 35.5 µM [rising, single point]
28 | CN(Cc1ccco1)c1ncnc2ccc(-c3ccccc3C#N)cc12 | 35.5 µM [falling, single point] | 
29 | CC1CCCN(C(=S)SCC(=O)c2cc(Br)cc(Br)c2O)C1 (stereo not drawn) | 35.5 µM [rising, single point] | 0.02 µM [rising, full curve, poor fit]
30 | Cc1cc(Nc2nc3ccccc3nc2Cl)n(-c2ccc([N+](=O)[O-])cc2)n1 | 35.5 µM [rising, single point] | 11.2 µM [falling, single point]
31 | O=C(CSc1ccc(Cl)cc1Cl)N1CCC(c2nc3ccccc3s2)CC1 | 10 µM [falling, partial curve, poor fit] | 11.2 µM [falling, partial curve, poor fit]
32 | Cc1c(C(=O)N2CCOCC2)[nH]c2c1C(=O)CC(c1ccccc1Cl)C2 (stereo not drawn) | 3.16 µM [rising, full curve, poor fit] | 
33 | O=C(Cn1cc(C(=O)c2ccco2)c2ccccc21)Nc1ccccc1 | 17.8 µM [rising, single point] | 
34 | Cc1nn(Cc2cccc(Oc3ccccc3)c2)c(C)c1NC(=O)NC12CC3CC(CC(C3)C1)C2 | 0.00447 µM [falling, full curve, poor fit] | 
35 | COc1cc(CNc2ccc(CNc3ncn[nH]3)cc2)ccc1OCC(=O)NC(C)(C)C | 12.6 µM [rising, partial curve] | 6.31 µM [rising, partial curve]
36 | CCC(C)(C)n1nnnc1CN(Cc1cccs1)Cc1cc2cc(OC)ccc2[nH]c1=O | 12.6 µM [rising, partial curve, poor fit] | 28.2 µM [rising, single point]
37 | CCn1c(=O)cc(SCC(=O)NCCCN2CCC(C)CC2)c2ccccc21 |  | 10 µM [falling, partial curve]
38 | O=C(CSc1nc2ccccc2s1)Nc1cc(S(=O)(=O)N2CCOCC2)ccc1Cl | 14.1 µM [rising, partial curve, poor fit] | 35.5 µM [rising, single point]
39 | O=C(c1ccco1)N1CCN(c2nc(C3CC3)nc3sc4c(c23)CCCC4)CC1 | 35.5 µM [rising, single point] | 35.5 µM [rising, single point]
40 | CCCCCn1c(=O)[nH]c2cc(C(=O)NCCN(CC)CC)ccc2c1=O | 0.251 µM [rising, full curve, poor fit] | 0.178 µM [rising, full curve]
41 | Cc1cccc(-c2noc(CN(C(=O)/C=C/c3ccccc3Cl)C(C)C)n2)c1 |  | 35.5 µM [rising, single point]
42 | Cc1ccc(C(=O)N/C(=C/C=C\c2ccccc2)C(=O)NCc2ccco2)cc1 | 22.4 µM [rising, single point] | 
43 | CC1=CC2=NC(=O)/C(=C\c3cc(C)n(-c4ccccc4F)c3C)C(=N)N2O1 | 25.1 µM [rising, single point] | 
44 | O=S(=O)(CCc1ccccc1)N1CCOCC1 | 2.82 µM [falling, single point] | 3.16 µM [falling, single point]
45 | CCSc1nnc(NC(=O)C(C(F)(F)F)C(F)(F)F)s1 | 35.5 µM [falling, single point] | 35.5 µM [falling, single point]
46 | NCCNS(=O)(=O)c1cccc2cnccc12 | 3.98 µM [rising, partial curve, poor fit] | 2.82 µM [rising, partial curve, poor fit]
47 | Cc1ccc(C(=O)NC(NCc2ccccc2)C(Cl)(Cl)Cl)cc1 (stereo not drawn) |  | 12.6 µM [rising, single point]
48 | CCc1c(C)sc2c1CCN(Cc1ccccc1C#N)C2c1ccccc1 (stereo not drawn) | 7.08 µM [rising, partial curve] | 
49 | Cc1nn(C)c2c1c(-c1ccccc1)cc(=O)n2Cc1ccc(F)cc1 | 11.2 µM [rising, partial curve] | 
50 | Cc1cc([N+](=O)[O-])ccc1NC(=O)C[n+]1ccc(N(C)C)cc1 | 0.00447 µM [falling, full curve, poor fit] | 
51 | S=C(NCCc1ccccc1)NCc1cccs1 | 3.98 µM [rising, partial curve] | 2.82 µM [rising, full curve, poor fit]
52 | O=C(CSc1nc2cc(Cl)ccc2o1)NCCc1ccccc1 | 17.8 µM [rising, single point] | 12.6 µM [rising, partial curve, poor fit]

From no. 29 to 32, copied from above:
Row | Compound | AC50 [1] | AC50 [2]
29 | CC1CCCN(C(=S)SCC(=O)c2cc(Br)cc(Br)c2O)C1 (stereo not drawn) | 35.5 µM [rising, single point] | 0.02 µM [rising, full curve, poor fit]
30 | Cc1cc(Nc2nc3ccccc3nc2Cl)n(-c2ccc([N+](=O)[O-])cc2)n1 | 35.5 µM [rising, single point] | 11.2 µM [falling, single point]
31 | O=C(CSc1ccc(Cl)cc1Cl)N1CCC(c2nc3ccccc3s2)CC1 | 10 µM [falling, partial curve, poor fit] | 11.2 µM [falling, partial curve, poor fit]
32 | Cc1c(C(=O)N2CCOCC2)[nH]c2c1C(=O)CC(c1ccccc1Cl)C2 (stereo not drawn) | 3.16 µM [rising, full curve, poor fit] | 
